This passage reports binding results from publication PMC11452662, “Biofunctionalized dissolvable hydrogel microbeads enable efficient characterization of native protein complexes” (Nature Communications, 2024).

For experiment [1], the target named is Thermoplasma acidophilum 20S proteasome α subunit expressed alone (Thermoplasma acidophilum) (UniProt P25156). Nature of the experiment: native MS; proteins expressed from a single plasmid that codes only for the α subunit.
Experiment [2] addresses Thermoplasma acidophilum 20S proteasome α subunit, unmodified (Thermoplasma acidophilum) (UniProt P25156). The experiment is described as follows: cryo-EM structure; 20S captured with SNAP beads, dissolving product put on the grid without removal of the polymers; 120 micrographs, D7 symmetry, 3.16 Å.
For experiment [3], the target named is T1, Thermoplasma acidophilum 20S proteasome β subunit with Twin-Strep-tag (Thermoplasma acidophilum) (UniProt P28061).
T1 sequence: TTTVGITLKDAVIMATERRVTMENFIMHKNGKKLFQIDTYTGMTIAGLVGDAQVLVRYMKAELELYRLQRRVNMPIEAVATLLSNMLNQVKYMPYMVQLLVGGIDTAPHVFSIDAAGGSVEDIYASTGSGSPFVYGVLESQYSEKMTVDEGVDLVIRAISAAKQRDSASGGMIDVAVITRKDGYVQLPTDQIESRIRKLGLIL
The experiment is described as above.

Experiment [4] concerns the target T1, Thermoplasma acidophilum 20S proteasome β subunit with Twin-Strep-tag (Thermoplasma acidophilum). Nature of the experiment: pull-down; α and Twin-Strep-tagged β expressed from two separate plasmids in E. coli; capture from lysate with Strep-Tactin SNAP beads; SDS-PAGE and Western blot with anti-Strep Ab. (In general: A western blot detects proteins with antibodies after separation by electrophoresis.)

These are yes or no findings as the source states them, for the method shown. For some assays here: In cells and extracts the contact can be indirect. Some binding calls cover weakened binding; strength is not graded here. For some assays here: Where a sequence is shown, tags or fusion partners need not be part of it.

Regarding “Thermoplasma acidophilum 20S proteasome α subunit expressed alone (from UniProt P25156 1-233)”, the binding entry in experiment [1] is listed as “binds”.

B1: Thermoplasma acidophilum 20S proteasome α subunit, unmodified (natural protein, UniProt P25156 1-233, looked up)
chain: MQQGQMAYDRAITVFSPDGRLFQVEYAREAVKKGSTALGMKFANGVLLISDKKVRSRLIEQNSIEKIQLIDDYVAAVTSGLVADARVLVDFARISAQQEKVTYGSLVNIENLVKRVADQMQQYTQYGGVRPYGVSLIFAGIDQIGPRLFDCDPAGTINEYKATAIGSGKDAVVSFLEREYKENLPEKEAVTLGIKALKSSLEEGEELKAPEIASITVGNKYRIYDQEEVKKFL
notes: 20S proteasome α subunit of Thermoplasma acidophilum; The results call this α subunit unmodified; the methods say that the constructs were tagged at the C-termini with either a Twin-Strep-tag or a His tag
Turning to B1, the binding result in experiment [2], in experiment [3] and in experiment [4] was “binds” in each case.

B2: Thermoplasma acidophilum 20S proteasome β subunit with Twin-Strep-tag (protein, UniProt P28061 9-211)
chain: T1 sequence
Take B2: the binding entry in experiment [3] was “binds”.
